Reference: patent publication US8211463B2, “Use of glycolipids as adjuvants” (Helmholtz-Zentrum Fuer Infektionsforschung GmbH, priority 2006, dated 2012)
Some entries share one result that the patent states for a list of compounds.

Tests used:
Format in all cases: in vivo, Balb/c mice
[1] = system: β-Gal-specific systemic IgG; experiment: β-Gal-specific serum IgG ELISA after i.n. or s.c. immunisation with β-Gal plus glycolipid adjuvant; settings: day 38
Protocol: Co-administration of β-Gal with 10 μg glycolipids 1, 5 and 6 induced β-Gal-specific systemic IgG responses in Balb/c mice. Balb/c mice were immunized by the i.n. or s.c. route with β-Gal alone or together with glycolipids 1, 5 and 6 three times at 2-wk intervals. 10 days after the final immunization, the immunized mice were sacrified. The levels of β-Gal-specific systemic IgG were determined in Sera of mice immunized by the i.n. (A) and s.c. (B) route. […] The parenteral administration of with β-Gal co-administered with glycolipids 1, 5 and 6 doubled the β-Galactosidase-specific IgG titer (>500000) in comparison to animals which were immunized with β-Gal alone. Bars represent mean Ab titer or amount±SE in each group. Each group consists of five mice. Data are representative of three separate experiments.
Balb/c mice were immunized by the i.n. or s.c. route with β-Gal alone or together with glycolipids 5 and 6 three times at 2-wk intervals. 10 days after the final immunization, the immunized mice were sacrified. The levels of β-Gal-specific systemic IgG were determined in Sera of mice immunized by the i.n. (A) and s.c. (B) route. […] The parenteral administration of with β-Gal co-administered with 20 μg glycolipids 5 and 6 enhanced the β-Galactosidase-specific IgG titer (>800000) in comparison to animals which were immunized with β-Gal alone. Bars represent mean Ab titer or amount±SE in each group. Each group consists of five mice. Data are representative of two separate experiments.
Experimental protocol: six-eight weeks-old female BALB/c (H-2d) mice were purchased from Harlan Winkelmann GmbH (Borchen, Germany) and treated in accordance with local and European Community guidelines. Groups of 5 mice each were immunized on day 01, 14 and 28 with 30 μg of β-Gal (Boehringer, Mannheim, Germany), alone or with 10 μg of glycolipids 1, 5, or 6, respectively, see FIG. 2. For intranasal (i.n.) immunization, 10 μl were applied to each naris, whereas for the s.c. injection β-Gal with or without glycolipids 1, 5 or 6, respectively, was resuspended in a volume of 50 μl PBS per animal. Serum samples were collected at day 38 after immunization and stored at −20° C. prior to determination of β-Gal-specific antibodies. 96-well Nunc-Immuno MaxiSorp assay plates (Nunc, Roskilde, Denmark) were coated with 100 μl of β-Gal (Boehringer, Mannheim, Germany) at 5 μg/ml in 0.05 M carbonate buffer (pH 8.2) per well. Serial two-fold dilutions of sera or lavages in PBS with 1% BSA and 0.05% Tween 20 were added (100 μl/well), and plates incubated for 16 h at 37° C. […] Endpoint titers were expressed as the reciprocal log 2 of the last dilution, which gave an optical density at 405 nm of 0.1 units above the values of the negative controls after 15 to 30 min of incubation.

[2] = system: spleen cells of immunized mice; experiment: Splenocyte proliferation ([3H]thymidine incorporation) after in vitro restimulation with β-Gal; settings: s.c. (parenteral), 20 up to 30 μg glycolipid
Protocol: Co-administration of β-Gal with 10 μg glycolipids 1, 5 and 6 induced a strong cellular immune responses against the β-Gal antigen in Balb/c mice. Balb/c mice were immunized by the i.n. or s.c. route with β-Gal alone or together with glycolipids 1, 5 and 6 three times at 2-wk intervals. 10 days after the final immunization, the immunized mice were sacrificed. Splenocytes of mice immunized by the i.n. (A) and s.c. (B) route were collected and cultured with different concentrations of the β-Gal-Protein for 4 days. […] Curves represent [^3H]thymidine incorporation (counts per minute, cpm) and Stimulation index (SI) in each group. Each group consists of five mice. Data are representative of three separate experiments.
Co-administration of β-Gal with 20 up to 30 μg glycolipids 5 and 6 induced a strong cellular immune responses against the β-Gal antigen in Balb/c mice. […]
Experimental protocol: Spleens were removed and pooled for analysis of cellular immune responses. […] Cells were then harvested on paper filters (Filtermat A; Wallac, Freiburg, Germany) by using a cell harvester (Inotech, Wohlen, Switzerland), and the amount of incorporated [^3H]thymidine into the DNA of proliferating cells was determined by a β-scintillation counter (Wallac 1450, Micro-Trilux). The results are expressed as the arithmetic mean of [^3H]thymidine uptake in cpm.

[3] = system: β-Gal-specific IgG isotypes; experiment: IgG isotype ELISA (IgG, IgG1, IgG2a) in sera of vaccinated mice; settings: s.c. (parenteral), 20 μg glycolipid
Protocol: Co-administration of β-Gal with 10 μg glycolipids 1, 5 and 6 induced β-Gal-specific systemic IgG responses in Balb/c mice. Balb/c mice were immunized by the i.n. or s.c. route with β-Gal alone or together with glycolipids 1, 5 and 6 three times at 2-wk intervals. 10 days after the final immunization, the immunized mice were sacrificed. The levels of β-Gal-specific titers of IgG isotypes were determined in Sera of mice immunized by the i.n. (A) and s.c. (B) route. […] Bars represent mean Ab titer or amount±SE in each group. Each group consists of five mice. Data are representative of three separate experiments.
Co-administration of β-Gal with 20 or 30 μg glycolipids 5 and 6, respectively, induced β-Gal-specific systemic IgG responses in Balb/c mice. Balb/c mice were immunized by the i.n. or s.c. route with β-Gal alone or together with glycolipids 5 and 6 three times at 2-wk intervals. 10 days after the final immunization, the immunized mice were sacrificed. The levels of β-Gal-specific titers of IgG isotypes were determined in Sera of mice immunized by the i.n. (A) and s.c. (B) route. […] The parenteral administration of with β-Gal co-administered with 20 μg glycolipids 5 and 6 enhanced the β-Galactosidase-specific IgG1 isotype titer (>250000) in comparison to animals which were immunized with β-Gal alone. Bars represent mean Ab titer or amount±SE in each group. […]

[4] = i.n., 20 or 30 μg glycolipid + 30 μg β-Gal
[5] = s.c. (parenteral), 20 μg glycolipid + 30 μg β-Gal

| Structure (SMILES) | β-Galactosidase-specific IgG titer in serum [1, 4] | β-Galactosidase-specific IgG titer in serum [1, 5] | Stimulation index (SI), [3H]thymidine incorporation of spleen cells [2] | β-Galactosidase-specific IgG1 isotype titer [3] |
| --- | --- | --- | --- | --- |
| CCCCCCCCCCCCCCOCC(COCCCCCCCCCCCCCC)O[C@@H]1O[C@H](CO)[C@@H](O[C@H]2O[C@H](CO)[C@@H](O)[C@H](O)[C@H]2O)[C@H](O)[C@H]1O [glycolipid 5, 1,3-Di-O-tetradecyl-2-O-[4′-O-(α-D-glucopyranosyl)-β-D-glucopyranosyl]-sn-glycerol] | > 600000 | > 800000 | > 15 | > 250000 |
| CCCCCCCCCCCCCCOCC(COCCCCCCCCCCCCCC)O[C@@H]1O[C@H](CO[C@H]2O[C@H](CO)[C@H](O)[C@H](O)[C@H]2O)[C@@H](O)[C@H](O)[C@H]1O [glycolipid 6, 1,3-di-O-tetradecyl-2-O-[6′-O-(α-D-galactopyranosyl)-β-D-glucopyranosyl]-sn-glycerol] | > 600000 | > 800000 | > 15 | > 250000 |
